The list shows a part of the results. Many values rest on one well or one pass, so single values are uncertain.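 The apoptosis fraction was the count of cleaved-PARP antibody-stained nuclei relative to all DNA-stained nuclei, imaged in 1,536-well plates. Screening doses were set so most cells survived, and baseline and induced cleaved-PARP levels vary greatly across cell lines.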

This experiment concerns SkMel28. Briefly: cleaved PARP positive nuclei fraction relative to DMSO control; melanoma cells; higher = more apoptosis. To be noted: library dose: low library concentration; 72 h.
On to `Nc1ccn([C@@H]2O[C@H](CO)[C@@H](O)C2(F)F)c(=O)n1` [gemcitabine] + O=C(Nc1cccc(Cl)c1)Nc1ncc(CCNc2ncnc3ccsc23)s1 [SNS314] (first compound 0.0004 µM, partner dose 0.0008 µM), for which the “cleaved PARP positive nuclei fraction” value stood at 230%.

For `O=C(O)[C@@H]1[O][Sb](=[O])([O][Sb]2(=[O])[O][C@H]([C@H](O)CO)[C@H](O)[C@H](C(=O)O)[O]2)[O][C@H]([C@H](O)CO)[C@@H]1O` (some centres undefined) [stibogluconate] + CC(C)CCN1c2nc(Nc3cc(F)c(O)c(F)c3)ncc2N(C)C(=O)C1C [BID1870] (first compound 2 µM, partner dose 0.2 µM), the “cleaved PARP positive nuclei fraction” value came to 34.2%. The same measure for `C=C(c1ccc(C(=O)O)cc1)c1cc2c(cc1C)C(C)(C)CCC2(C)C` [Bexarotene] + COc1ccc2c(c1)CCC1C2CCC2(C)C(NCCCCCCN3C(=O)C=CC3=O)CCC12 [U73122] (first compound 2 µM, partner dose 0.4 µM): 171%; for `C=C(c1ccc(C(=O)O)cc1)c1cc2c(cc1C)C(C)(C)CCC2(C)C` [Bexarotene] + Oc1nc(-c2ccc(C(F)(F)F)cc2)nc2c1CSCC2 [XAV939] (first compound 2 µM, partner dose 2 µM): 118%; for `CS(=O)(=O)CCNCc1ccc(-c2ccc3ncnc(Nc4ccc(OCc5cccc(F)c5)c(Cl)c4)c3c2)o1` [lapatinib] + NC(=O)Nc1cc(-c2cccc(F)c2)sc1C(=O)N[C@H]1CCCNC1 [AZD7762] (first compound 0.8 µM, partner dose 0.02 µM): 77.7%. As for `O=C(O)[C@@H]1[O][Sb](=[O])([O][Sb]2(=[O])[O][C@H]([C@H](O)CO)[C@H](O)[C@H](C(=O)O)[O]2)[O][C@H]([C@H](O)CO)[C@@H]1O` (some centres undefined) [stibogluconate] + CN(NC(=O)CC(=O)NN(C)C(=S)c1ccccc1)C(=S)c1ccccc1 [STA4783] (first compound 2 µM, partner dose 0.006 µM), the figure is 132%; as for `CCCS(=O)(=O)Nc1ccc(F)c(C(=O)c2c[nH]c3ncc(Cl)cc23)c1F` + COc1ccc(COc2ccc(Cc3cnc(N)nc3N)cc2OC)cc1 [GW2580] (first compound 0.08 µM, partner dose 1 µM), 135%.

As for `Nc1ncn([C@H]2C[C@H](O)[C@@H](CO)O2)c(=O)n1` [decitabine] + CCc1ccc(CCOc2ccc(CC3SC(=O)NC3=O)cc2)nc1 [pioglitazone] (first compound 0.1 µM, partner dose 2 µM), the “cleaved PARP positive nuclei fraction” value came to 208%. Consider `CN1CCN(c2ccc3nc(-c4c(N)c5c(F)cccc5[nH]c4=O)[nH]c3c2)CC1` [Dovitinib] + CN(NC(=O)CC(=O)NN(C)C(=S)c1ccccc1)C(=S)c1ccccc1 [STA4783] (first compound 0.1 µM, partner dose 0.006 µM), for which the “cleaved PARP positive nuclei fraction” value was 30.4%. The same measure for `Nc1ccn([C@@H]2O[C@H](CO)[C@@H](O)C2(F)F)c(=O)n1` [gemcitabine] + O=c1cc(-c2cccc3c2Sc2ccccc2S3)oc(N2CCOCC2)c1 [KU55933] (first compound 0.0004 µM, partner dose 1 µM): 81.6%; for `CCCS(=O)(=O)Nc1ccc(F)c(C(=O)c2c[nH]c3ncc(Cl)cc23)c1F` + COc1cc(Nc2ncc(F)c(Nc3ccc4c(n3)NC(=O)C(C)(C)O4)n2)cc(OC)c1OC [Tamatinib] (first compound 0.08 µM, partner dose 0.4 µM): 277%.

`Cn1c(=O)n(-c2ccc(C(C)(C)C#N)cc2)c2c3cc(-c4cnc5ccccc5c4)ccc3ncc21` + Oc1cc(-c2nc(-c3ccccc3)[nH]c2-c2ccncc2)ccc1Cl [L779450] (first compound 0.004 µM, partner dose 0.2 µM): the “cleaved PARP positive nuclei fraction” value came out at 118%.

For the compound `CN1CCN(c2ccc3nc(-c4c(N)c5c(F)cccc5[nH]c4=O)[nH]c3c2)CC1` [Dovitinib] + COc1ccc(COc2ccc(Cc3cnc(N)nc3N)cc2OC)cc1 [GW2580] (first compound 0.1 µM, partner dose 1 µM), the “cleaved PARP positive nuclei fraction” value worked out at 115%. The same measure for `C=C(c1ccc(C(=O)O)cc1)c1cc2c(cc1C)C(C)(C)CCC2(C)C` [Bexarotene] + CCc1ccc(CCOc2ccc(CC3SC(=O)NC3=O)cc2)nc1 [pioglitazone] (first compound 2 µM, partner dose 2 µM): 24.7%.
